# According to the supplement of paper PMC8728848:
# The list shows a part of the results.
# Columns and labels:
# Assay in all cases: glycan array binding signal (z-score within array); higher = stronger binding
# Details in all cases: glycan notation: IUPAC condensed, linker removed
# Fuc(a1-2)Gal = target: Fuc(a1-2)Gal
# Method in brief: (§1)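 Columns mapping to the same glycan were averaged after glycan names were converted to IUPAC-condensed notation. The data come from 3228 arrays in the Consortium for Functional Glycomics database, limited to those with an available protein sequence. Binding is reported as a within-array Z-score averaged across arrays of one protein sequence and across linkers.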
# Fuc(a1-2)Gal(b1-3)GalNAc = target: Fuc(a1-2)Gal(b1-3)GalNAc
# Method in brief: as §1
# [1] = target: Fuc(a1-2)Gal(b1-3)GalNAc(a1-3)[Fuc(a1-2)]Gal(b1-4)Glc
# Method in brief: as §1
# [2] = target: Fuc(a1-2)Gal(b1-3)GalNAc(a1-3)[Fuc(a1-2)]Gal(b1-4)GlcNAc
# Method in brief: as §1
# [3] = target: Fuc(a1-2)Gal(b1-3)GalNAc(b1-3)Gal
# Method in brief: as §1
# [4] = target: Fuc(a1-2)Gal(b1-3)GalNAc(b1-3)Gal(a1-4)Gal(b1-4)Glc
# Method in brief: as §1
# [5] = target: Fuc(a1-2)Gal(b1-3)GalNAc(b1-4)[Neu5Ac(a2-3)]Gal(b1-4)Glc
# Method in brief: as §1
# Fuc(a1-2)Gal(b1-3)GlcNAc = target: Fuc(a1-2)Gal(b1-3)GlcNAc
# Method in brief: as §1
# [6] = target: Fuc(a1-2)Gal(b1-3)GlcNAc(b1-2)Man(a1-3)[Fuc(a1-2)Gal(b1-3)GlcNAc(b1-2)Man(a1-6)]Man(b1-4)GlcNAc(b1-4)GlcNAc
# Method in brief: as §1
# [7] = target: Fuc(a1-2)Gal(b1-3)GlcNAc(b1-2)Man(a1-3)[Fuc(a1-2)Gal(b1-3)GlcNAc(b1-2)Man(a1-6)]Man(b1-4)GlcNAc(b1-4)[Fuc(a1-6)]GlcNAc
# Method in brief: as §1
# [8] = target: Fuc(a1-2)Gal(b1-3)GlcNAc(b1-3)Gal(b1-4)Glc
# Method in brief: as §1
# [9] = target: Fuc(a1-2)Gal(b1-3)GlcNAc(b1-3)GalNAc
# Method in brief: as §1
# [10] = target: Fuc(a1-2)Gal(b1-3)GlcNAc(b1-3)[Fuc(a1-2)Gal(b1-3)GlcNAc(b1-6)]GalNAc
# Method in brief: as §1
# [11] = target: Fuc(a1-2)Gal(b1-3)GlcNAc(b1-3)[Gal(b1-4)GlcNAc(b1-6)]Gal(b1-4)Glc
# Method in brief: as §1
# [12] = target: Fuc(a1-2)Gal(b1-3)GlcNAc(b1-3)[Neu5Ac(a2-6)Gal(b1-4)GlcNAc(b1-6)]Gal(b1-4)Glc
# Method in brief: as §1
# [13] = target: Fuc(a1-2)Gal(b1-3)GlcNAc6S
# Method in brief: as §1
# [14] = target: Fuc(a1-2)Gal(b1-3)[Fuc(a1-4)]GlcNAc
# Method in brief: as §1
# [15] = target: Fuc(a1-2)Gal(b1-3)[Fuc(a1-4)]GlcNAc(b1-2)Man(a1-3)[Fuc(a1-2)Gal(b1-3)[Fuc(a1-4)]GlcNAc(b1-2)Man(a1-3)]Man(b1-4)GlcNAc(b1-4)GlcNAc
# Method in brief: as §1
# [16] = target: Fuc(a1-2)Gal(b1-3)[Fuc(a1-4)]GlcNAc(b1-2)Man(a1-3)[Fuc(a1-2)Gal(b1-3)[Fuc(a1-4)]GlcNAc(b1-2)Man(a1-6)]Man(b1-4)GlcNAc(b1-4)[Fuc(a1-6)]GlcNAc(b1-4)[Fuc(a1-6)]GlcNAc
# Method in brief: as §1
# [17] = target: Fuc(a1-2)Gal(b1-3)[Fuc(a1-4)]GlcNAc(b1-3)[Fuc(a1-3)[Gal(b1-4)]GlcNAc(b1-6)]Gal(b1-4)Glc
# Method in brief: as §1
# [18] = target: Fuc(a1-2)Gal(b1-3)[Fuc(a1-4)]GlcNAc(b1-3)[Gal(b1-4)GlcNAc(b1-6)]Gal(b1-4)Glc
# Method in brief: as §1
# Fuc(a1-2)Gal(b1-4)Glc = target: Fuc(a1-2)Gal(b1-4)Glc
# Method in brief: as §1
# Fuc(a1-2)Gal(b1-4)Glc6S = target: Fuc(a1-2)Gal(b1-4)Glc6S
# Method in brief: as §1
# Fuc(a1-2)Gal(b1-4)GlcNAc = target: Fuc(a1-2)Gal(b1-4)GlcNAc
# Method in brief: as §1
# [19] = target: Fuc(a1-2)Gal(b1-4)GlcNAc(b1-2)Man
# Method in brief: as §1
# [20] = target: Fuc(a1-2)Gal(b1-4)GlcNAc(b1-2)Man(a1-3)[Fuc(a1-2)Gal(b1-4)GlcNAc(b1-2)Man(a1-6)]Man(b1-4)GlcNAc(b1-4)GlcNAc
# Method in brief: as §1
# [21] = target: Fuc(a1-2)Gal(b1-4)GlcNAc(b1-2)Man(a1-3)[Fuc(a1-2)Gal(b1-4)GlcNAc(b1-2)Man(a1-6)]Man(b1-4)GlcNAc(b1-4)[Fuc(a1-6)]GlcNAc
# Method in brief: as §1
# [22] = target: Fuc(a1-2)Gal(b1-4)GlcNAc(b1-2)[Fuc(a1-2)Gal(b1-4)GlcNAc(b1-4)]Man(a1-3)[Fuc(a1-2)Gal(b1-4)GlcNAc(b1-2)Man(a1-6)]Man(b1-4)GlcNAc(b1-4)GlcNAc
# Method in brief: as §1
# [23] = target: Fuc(a1-2)Gal(b1-4)GlcNAc(b1-3)Gal(b1-4)GlcNAc
# Method in brief: as §1
# [24] = target: Fuc(a1-2)Gal(b1-4)GlcNAc(b1-3)Gal(b1-4)GlcNAc(b1-2)Man(a1-3)[Fuc(a1-2)Gal(b1-4)GlcNAc(b1-3)Gal(b1-4)GlcNAc(b1-2)Man(a1-6)]Man(b1-4)GlcNAc(b1-4)GlcNAc
# Method in brief: as §1
# [25] = target: Fuc(a1-2)Gal(b1-4)GlcNAc(b1-3)Gal(b1-4)GlcNAc(b1-3)Gal(b1-4)GlcNAc
# Method in brief: as §1
# [26] = target: Fuc(a1-2)Gal(b1-4)GlcNAc(b1-3)GalNAc
# Method in brief: as §1
# [27] = target: Fuc(a1-2)Gal(b1-4)GlcNAc(b1-3)[Fuc(a1-2)Gal(b1-4)GlcNAc(b1-6)]GalNAc
# Method in brief: as §1
# [28] = target: Fuc(a1-2)Gal(b1-4)GlcNAc(b1-3)[Fuc(a1-3)[Gal(b1-4)]GlcNAc(b1-6)]Gal(b1-4)Glc
# Method in brief: as §1
# [29] = target: Fuc(a1-2)Gal(b1-4)GlcNAc(b1-6)GalNAc
# Method in brief: as §1
# [30] = target: Fuc(a1-2)Gal(b1-4)GlcNAc6S
# Method in brief: as §1
# [31] = target: Fuc(a1-2)Gal(b1-4)[Fuc(a1-3)]GlcNAc
# Method in brief: as §1
binder,measurement,setting,value
PX9937I-bfa-538-26-538 (Bacteroides fragilis) (protein) DKLDLSPIDYYGSGSYWKTEAQATAYIDGIHKHLRDAAWQHTITFGELRGGRFITGASSDGMGVSNGDIILQNFDETHTGVSKFGDLFGRITNLNLFIARVTDATYLSDEMKNFYLGEVYGLRAFYYFDLYRIYGGVPLRLTADVVEGVIDPNKLYMARSTPKEVMTQIKSDLNKSMEYFGNMNDFDPYKRGKKVYWSKAATECLMGEVYLWTSKVTTGDDVANPADLTIAKTHLESVLNNYNLKMLDDFSQVFNAKNKANDEIIFAIRFLEGEATNSNGTFTYNVGTGSTKNRYQANGEVFGDALDIQNTGNQTYEYNKAVYQNFDDADTRKEATFIASYNKDGKTGELSLYGTHVRKNIGYVNAQGARVYCGDYIFYRLPWVYLTLAEIANMEGDNAAVAKYINLVRKRAYGNAWDETLYAYPETADFTTNELAILHEKDKEFIQEGQRWWDLRRMTLTKGGTPLVFCKEGSLLGDAPILNKSTEAHKLLWPIEKTMLNKDPALEQTPGYK,glycan array binding signal (z-score),Fuc(a1-2)Gal,-0.258
same,glycan array binding signal (z-score),Fuc(a1-2)Gal(b1-3)GalNAc,0.13
same,glycan array binding signal (z-score),[1],-0.169
same,glycan array binding signal (z-score),[2],0.914
same,glycan array binding signal (z-score),[3],-1.04
same,glycan array binding signal (z-score),[4],-0.803
same,glycan array binding signal (z-score),[5],-0.124
same,glycan array binding signal (z-score),Fuc(a1-2)Gal(b1-3)GlcNAc,0.304
same,glycan array binding signal (z-score),[6],5.41
same,glycan array binding signal (z-score),[7],0.965
same,glycan array binding signal (z-score),[8],-0.607
same,glycan array binding signal (z-score),[9],-0.862
same,glycan array binding signal (z-score),[10],-0.035
same,glycan array binding signal (z-score),[11],0.065
same,glycan array binding signal (z-score),[12],-0.393
same,glycan array binding signal (z-score),[13],-0.192
same,glycan array binding signal (z-score),[14],0.507
same,glycan array binding signal (z-score),[15],-0.186
same,glycan array binding signal (z-score),[16],0.982
same,glycan array binding signal (z-score),[17],0.306
same,glycan array binding signal (z-score),[18],1.94
same,glycan array binding signal (z-score),Fuc(a1-2)Gal(b1-4)Glc,1.04
same,glycan array binding signal (z-score),Fuc(a1-2)Gal(b1-4)Glc6S,0.782
same,glycan array binding signal (z-score),Fuc(a1-2)Gal(b1-4)GlcNAc,0.509
same,glycan array binding signal (z-score),[19],0.093
same,glycan array binding signal (z-score),[20],3.93
same,glycan array binding signal (z-score),[21],1.57
same,glycan array binding signal (z-score),[22],1.02
same,glycan array binding signal (z-score),[23],-0.914
same,glycan array binding signal (z-score),[24],-0.602
same,glycan array binding signal (z-score),[25],-0.532
same,glycan array binding signal (z-score),[26],-0.175
same,glycan array binding signal (z-score),[27],-0.761
same,glycan array binding signal (z-score),[28],-0.397
same,glycan array binding signal (z-score),[29],-0.32
same,glycan array binding signal (z-score),[30],0.645
same,glycan array binding signal (z-score),[31],-0.821

# Fetched one by one from the list above:
binder,measurement,setting,value
PX9937I-bfa-538-26-538 (Bacteroides fragilis) (protein) DKLDLSPIDYYGSGSYWKTEAQATAYIDGIHKHLRDAAWQHTITFGELRGGRFITGASSDGMGVSNGDIILQNFDETHTGVSKFGDLFGRITNLNLFIARVTDATYLSDEMKNFYLGEVYGLRAFYYFDLYRIYGGVPLRLTADVVEGVIDPNKLYMARSTPKEVMTQIKSDLNKSMEYFGNMNDFDPYKRGKKVYWSKAATECLMGEVYLWTSKVTTGDDVANPADLTIAKTHLESVLNNYNLKMLDDFSQVFNAKNKANDEIIFAIRFLEGEATNSNGTFTYNVGTGSTKNRYQANGEVFGDALDIQNTGNQTYEYNKAVYQNFDDADTRKEATFIASYNKDGKTGELSLYGTHVRKNIGYVNAQGARVYCGDYIFYRLPWVYLTLAEIANMEGDNAAVAKYINLVRKRAYGNAWDETLYAYPETADFTTNELAILHEKDKEFIQEGQRWWDLRRMTLTKGGTPLVFCKEGSLLGDAPILNKSTEAHKLLWPIEKTMLNKDPALEQTPGYK,glycan array binding signal (z-score),[24],-0.602
same,glycan array binding signal (z-score),Fuc(a1-2)Gal(b1-4)GlcNAc,0.509
same,glycan array binding signal (z-score),[16],0.982
